Measured values taken from the supplement of paper PMC7858590.
± gives the standard deviation of the averaged measurements. In all, about 3,800 compounds were measured (“cell shape (eccentricity) Z-score vs DMSO control”: median about 1.1, lowest 2% from about -4.7 on). The list shows a part of the results.

Test system: human monocyte-derived macrophages (M0)
Assay: cell shape (eccentricity) Z-score vs DMSO control; higher = more elongated, M2-like morphology
Settings: 20 µM; 24 h; macrophage state: M0 (M-CSF)

SMILES | cell shape (Z-score)
Cc1c(Cl)cccc1Nc1ccccc1C(=O)O | 1.66
COc1cc2ncnc(Nc3cccc(O)c3)c2cc1OC | -0.0551
CC1=CC=C(C=O)C(C)(C)C1OC(=O)/C=C(\C)CO (stereo unspecified) | 0.267
O=C(Cc1ccc(-c2ccc(OCCN3CCOCC3)cc2)cn1)NCc1ccccc1 | 9.61
C=C1C(=O)O[C@@H]2[C@H]3O[C@]3(C)CC/C=C(/C)CC[C@@H]12 | -9.25
c1ccc2cc(C3=NCCN3)ncc2c1 | -4.69
C/C(=C/CO)CC[C@@H]1[C@@](C)(O)CCC2C(C)(C)CCC[C@]21C (stereo partly specified) | -0.0677 ± 2
COc1ccc(OC2OC(COC3OCC(O)C(O)C3O)C(O)C(O)C2O)cc1OC (stereo unspecified) | 1.25
CC(C)c1ccccc1OC(=O)NCCc1ccc2ccccc2c1 | 3.62
COCc1c(C(C)C)nc(C(C)C)c(/C=C/[C@@H](O)C[C@@H](O)CC(=O)O)c1-c1ccc(F)cc1 | 10.1 ± 0.39
CC(C)(C)NCC(O)c1ccc(O)c(CO)c1 (stereo unspecified) | 1.42
COC1CC(O[C@H]2CC[C@]3(C)C4CC[C@@]5(C)C(=O)[C@]4(CC[C@@H]3C2)CC[C@@H]5C2=CC(=O)OC2)OC(C)C1OC1OC(COC2OC(CO)C(O)C(O)C2O)C(O)C(O)C1O (stereo partly specified) | 0.241
C[C@@H]1O[C@@H](O[C@@H]2[C@@H](O)[C@H](OC(=O)[C@]34CCC(C)(C)CC3C3=CCC5[C@@]6(C)CC[C@H](OC7OC(CO)C(OC8OCC(O)C(O)C8O)C(O)C7O)C(C)(C)C6CC[C@@]5(C)[C@]3(C)CC4O)O[C@H]2CO)[C@H](O)[C@H](O)[C@H]1O[C@H]1OC[C@](O)(CO)[C@H]1O (stereo partly specified) | -11.6
O=C(O)CCCCC1SCC2NC(=O)NC21 (stereo unspecified) | 0.251
COc1ccc(C2OCC3C(c4cc(OC)c5c(c4)OCO5)OCC23)cc1OC (stereo unspecified) | -1.14
O=C(O)c1ccc(-c2ccc3cc(C45CC6CC(CC(C6)C4)C5)c(O)cc3c2)cc1 | 4.68
CN1CCCC(n2nc(Cc3ccc(Cl)cc3)c3ccccc3c2=O)CC1 (stereo unspecified) | 1.51
Fc1ccc(CNc2ncnc3ccc(F)cc23)cc1 | 1.17
CS(=O)(=O)c1cccc(CNc2nc(Nc3ccc4c(c3)CCC(=O)N4)ncc2C(F)(F)F)c1 | 23.1

Entries listed so far containing nitrogen in an aromatic ring, in the order listed:
SMILES | cell shape (Z-score)
COc1cc2ncnc(Nc3cccc(O)c3)c2cc1OC | -0.0551
O=C(Cc1ccc(-c2ccc(OCCN3CCOCC3)cc2)cn1)NCc1ccccc1 | 9.61
c1ccc2cc(C3=NCCN3)ncc2c1 | -4.69
COCc1c(C(C)C)nc(C(C)C)c(/C=C/[C@@H](O)C[C@@H](O)CC(=O)O)c1-c1ccc(F)cc1 | 10.1 ± 0.39
CN1CCCC(n2nc(Cc3ccc(Cl)cc3)c3ccccc3c2=O)CC1 (stereo unspecified) | 1.51
Fc1ccc(CNc2ncnc3ccc(F)cc23)cc1 | 1.17
CS(=O)(=O)c1cccc(CNc2nc(Nc3ccc4c(c3)CCC(=O)N4)ncc2C(F)(F)F)c1 | 23.1

Later entries.

SMILES | cell shape (Z-score)
C#C[C@]1(O)CCC2C3CCC4=CC(=O)CC[C@@H]4C3CC[C@@]21CC (stereo partly specified) | 0.993
CC1(C)CC=C(c2cnc3ccccc3c2)c2cc(C(=O)Nc3ccc(C(=O)O)cc3)ccc21 | 1.82
COc1ccc2c(=O)c(OC)c(-c3ccccc3)oc2c1 | 3.19
C#C[C@]1(OC(C)=O)CCC2C3CCC4=CC(=O)CC[C@@H]4C3CC[C@@]21C (stereo partly specified) | 0.116
Cc1[nH]c(=O)c(C#N)cc1-c1ccc2nccn2c1 | 0.771
C=CCc1ccc(O[C@@H]2O[C@H](CO[C@@H]3O[C@@H](C)[C@H](O)[C@@H](O)[C@H]3O)[C@@H](O)[C@H](O)[C@H]2O)c(O)c1 | 0.234
COc1ccc2[nH]c(S)nc2c1 | 5.21
CCCCOc1ccc(CC(=O)NO)cc1 | 2.83
CCN(CC)CC1CCN(c2ncc3ncnc(Nc4ccc(F)c(Cl)c4)c3n2)CC1 | 1.38
Oc1c(Cl)cc(Cl)cc1Sc1cc(Cl)cc(Cl)c1O | -0.889
O=C(CCCN1CC=C(n2c(=O)[nH]c3ccccc32)CC1)c1ccc(F)cc1 | -0.756
C[C@]12CCC3c4ccc(OS(=O)(=O)O)cc4CCC3C1CC[C@H]2O (stereo partly specified) | 4.98
CC(=O)O[C@H]1C[C@@]2(C)[C@@H](C[C@@H](O)[C@H]3[C@@]4(C)CC[C@@H](O)[C@@H](C)C4CC[C@@]32C)C1=C(CCC=C(C)C)C(=O)O (stereo partly specified) | 1.74
CCC(C)(C)C(=O)OC1CC(C)C=C2C=CC(C)C(CCC3CC(O)CC(=O)O3)C21 (stereo unspecified) | 0.172
CC(=O)OCC(=O)[C@@]1(O)[C@@H](C)CC2C3CCC4=CC(=O)C=C[C@]4(C)[C@@]3(F)[C@@H](O)C[C@@]21C (stereo partly specified) | -1.75
COc1ccnc(CS(=O)c2nc3cc(OC(F)F)ccc3[nH]2)c1OC (stereo unspecified) | -1.46
O=C(/C=C/c1ccccc1)CC(O)CCc1ccccc1 (stereo unspecified) | -0.2
CCCCCCCCC=CCCCCCCCC(=O)NCc1ccc(O)c(OC)c1 | -0.105
COc1cc2c(cc1OC)-c1c(oc3cc(O)cc(O)c3c1=O)CO2 | 4.24

SMILES | cell shape (Z-score)
C[C@@H]1CC[C@]2(C(=O)O)CC[C@]3(C)C(=CCC4[C@@]5(C)C[C@@H](O)[C@H](O)[C@@](C)(CO)C5CC[C@]43C)C2[C@H]1C (stereo partly specified) | 2.25
C[C@@H]1C(=O)O[C@H](C)[C@H]1C[C@@H](O)[C@](C)(O)[C@H]1CC[C@@]2(O)C3=CC(=O)[C@@H]4C[C@@H](O)[C@@H](O)C[C@]4(C)C3CC[C@]12C (stereo partly specified) | 1.12
CN(C)CCC(c1ccccc1)c1ccccn1 (stereo unspecified) | 0.207
O=C(O)CCc1nc2ccccc2[nH]1 | -1.47
CCOC(=O)C(=O)c1csc(NC=O)n1 | -1.72
CC(=O)OCC(=O)[C@@]1(O)CCC2C3CCC4=CC(=O)CC[C@]4(C)C3[C@@H](O)C[C@@]21C (stereo partly specified) | 0.315
CCN(CC)C(=O)N1CCN(C)CC1 | 2.76
COc1ccc(S(=O)(=O)N(C(C)=O)c2ccccc2/C=C/c2cc[n+]([O-])cc2)cc1 | -4.1
C=C1CC[C@H]2[C@@](C)(CCC(O)[C@@]2(C)CO)[C@@H]1CCC1=CCOC1=O (stereo partly specified) | 3.19
CC1(C)CCC[C@]2(C)C1CC=C(CO)[C@H]2CC/C(=C/CO)CO (stereo partly specified) | 2.48 ± 1.6
Cc1c(C)n(Cc2ccccc2)c2ccc(C(=O)OCCN(C)C)cc12 | -2.89
CO[C@H]1/C=C/O[C@@]2(C)Oc3c(C)c(O)c4c(O)c(c(/C=N/N5CCN(C6CCCC6)CC5)c(O)c4c3C2=O)NC(=O)/C(C)=C\C=C\[C@H](C)[C@H](O)[C@@H](C)[C@@H](O)[C@@H](C)[C@H](OC(C)=O)[C@@H]1C | -1.4
CCN(CCCc1ccccc1)CCCc1ccccc1 | -3.44
Cc1cc(CS(=O)(=O)c2ccccc2)cc(OCc2ccc(CN3CCC[C@@H]3CO)cc2)c1 | 1.66
CC1=C2C[C@@]3(C)[C@@H](CCC[C@@H]3C)C[C@@]2(O)OC1=O | -3.39
Cc1cccc(CN2CCN(C(c3ccccc3)c3ccc(Cl)cc3)CC2)c1 (stereo unspecified) | -2.42
C[C@@H](O)CNC(C)(C)CC(=O)N[C@@H]1CCc2ccccc2N(Cc2ccc(-c3ccccc3-c3nn[nH]n3)cc2)C1=O | 1.86
Clc1ccccc1C(c1ccccc1)(c1ccccc1)n1ccnc1 | 2.32

Copied from above, 2 compounds:
SMILES | cell shape (Z-score)
COc1cc2c(cc1OC)-c1c(oc3cc(O)cc(O)c3c1=O)CO2 | 4.24
C[C@@H]1CC[C@]2(C(=O)O)CC[C@]3(C)C(=CCC4[C@@]5(C)C[C@@H](O)[C@H](O)[C@@](C)(CO)C5CC[C@]43C)C2[C@H]1C (stereo partly specified) | 2.25
